Source: US9522141B2, “Indazole compounds as aldosterone synthase inhibitors” (Merck Sharp & Dohme Corp., priority 2012, dated 2016)
Some entries share one result that the patent states for a list of compounds.

Target: T1, human CYP11B2 (Homo sapiens, UniProt P19099)
T1 construct: expressed in transfected cells; host or cells: V79 cells (clone V79-hCYP11B2-CLE9)
T1 sequence (P19099 25-503): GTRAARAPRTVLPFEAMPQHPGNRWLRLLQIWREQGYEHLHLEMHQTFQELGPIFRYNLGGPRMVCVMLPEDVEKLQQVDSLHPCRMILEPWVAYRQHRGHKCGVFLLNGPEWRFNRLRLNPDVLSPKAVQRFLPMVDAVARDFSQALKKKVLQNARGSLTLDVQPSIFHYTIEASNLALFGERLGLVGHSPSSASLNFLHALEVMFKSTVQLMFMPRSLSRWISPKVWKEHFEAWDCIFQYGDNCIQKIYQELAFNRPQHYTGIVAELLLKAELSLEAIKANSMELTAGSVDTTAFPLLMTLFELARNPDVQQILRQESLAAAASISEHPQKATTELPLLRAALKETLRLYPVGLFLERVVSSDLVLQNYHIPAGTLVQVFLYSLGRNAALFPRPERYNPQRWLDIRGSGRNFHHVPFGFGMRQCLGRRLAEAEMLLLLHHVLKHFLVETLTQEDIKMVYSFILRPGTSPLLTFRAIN
Experiment: V79-Human-CYP11B2 cell assay
Assay type: cell-based
Settings: V79 cells stably expressing human CYP11B2; 125 nM 11-deoxycorticosterone substrate; aldosterone by HTRF
Procedure: Methods for V79-Human-CYP11B2 and V79-Human-CYP11B1 Assays: V79 cell lines stably expressing the either the human CYP11B2 or the human CYP11B1 enzyme were generated using a standard transfection protocol. V79 cells were transfected with plasmids pTriEx3-Hygro-hCyp11B2 or pTriEx3-Hygro-hCyp11B1 using Lipofectamine2000 reagent. […] Single cell clones were generated by […] in DMEM supplemented with 10% FBS and 400 μg/mL hygromycin until single colonies were obtained. […] The reaction was carried out for 3 hours at 37° C., 5% CO2 and was stopped by harvesting the supernatants. […] IC50s for the inhibitor were determined by plotting the amount of product formed against the concentration of inhibitor using sigmoidal dose-response curve (variable slope) fit in GraphPad.

CNc1cncc(-n2ncc3c(Cl)cccc32)n1 [Example 89, 6-(4-chloro-1H-indazol-1-yl)-N-methylpyrazin-2-amine]
IC50: < 10 µM

c1ccc2c(-n3nc(C4CC4)c4ccccc43)cncc2c1 [Example 47, 4-(3-cyclopropyl-1H-indazol-1-yl)isoquinoline]
IC50: < 10 µM

CC(O)(c1cncc(-n2ncc3c2CCCC3)c1)C(F)(F)F (stereo not drawn) [Example 75]
IC50: < 10 µM

Cc1ccncc1-n1ncc2c1CCCC2 [Example 23, 1-(4-methylpyridin-3-yl)-4,5,6,7-tetrahydro-1H-indazole]
IC50: < 10 µM

Fc1ccc2c(cnn2-c2cccnc2)c1Cl [Example 20, 4-chloro-5-fluoro-1-(pyridin-3-yl)-1H-indazole]
IC50: < 10 µM

Fc1ccc2cnn(-c3cccnc3)c2c1 [Example 3, 6-fluoro-1-(pyridin-3-yl)-1H-indazole]
IC50: < 10 µM

COc1ccncc1-n1ncc2c1CCCC2 [Example 22, 1-(4-methoxypyridin-3-yl)-4,5,6,7-tetrahydro-1H-indazole]
IC50: < 10 µM

FC(F)(F)c1cncc(-n2ncc3c(Cl)cccc32)c1 [Example 28, 4-chloro-1-(5-(trifluoromethyl)pyridin-3-yl)-1H-indazole]
IC50: < 10 µM

CC(O)(c1cncc(-n2ncc3ccc(F)cc32)c1)C(F)(F)F (stereo not drawn) [Example 77, 1,1,1-trifluoro-2-(5-(6-fluoro-1H-indazol-1-yl)pyridin-3-yl)propan-2-ol]
IC50: < 10 µM

COC(=O)c1cccc2c1cnn2-c1cnccc1C [Example 33, methyl 1-(4-methylpyridin-3-yl)-1H-indazole-4-carboxylate]
IC50: < 10 µM

Fc1cccc2c1cnn2-c1cccnc1 [Example 16, 4-fluoro-1-(pyridin-3-yl)-1H-indazole]
IC50: < 10 µM

Clc1cccc2c1cnn2-c1cncc(N2CCC2)n1 [Example 90, 1-(6-azetidin-1-ylpyrazin-2-yl)-4-chloro-1H-indazole]
IC50: < 10 µM

Fc1cncc(-n2ncc3cc(F)ccc32)c1 [Example 5, 5-fluoro-1-(5-yl)-1H-indazole]
IC50: < 10 µM

Cc1nn(-c2cncc(C(C)(C)O)c2)c2ccccc12 [Example 59, 2-(5-(3-methyl-1H-indazol-1-yl)pyridin-3-yl)propan-2-ol]
IC50: < 10 µM

Fc1ccc2c(cnn2-c2cncc3ccccc23)c1 [Example 50, 4-(5-fluoro-1H-indazol-1-yl)isoquinoline]
IC50: < 10 µM

C[C@](O)(c1cncc(-n2nc(C(F)(F)F)c3ccccc32)c1)C(F)(F)F [Example 82, (S)-1,1,1-trifluoro-2-(5-(3-(trifluoromethyl)-1H-indazol-1-yl)pyridin-3-yl)propan-2-ol]
IC50: < 10 µM

CC(C)(O)c1cncc(-n2ncc3cc(F)c(F)cc32)c1 [Example 54, 2-(5-(5,6-difluoro-1H-indazol-1-yl)pyridin-3-yl)propan-2-ol]
IC50: < 10 µM

COc1cncc(-n2ncc3c2CCCC3)c1 [Example 21, 1-(5-methoxypyridin-3-yl)-4,5,6,7-tetrahydro-1H-indazole]
IC50: < 10 µM

Cc1nn(-c2cnccc2C(F)(F)F)c2ccccc12 [Example 35, 3-methyl-1-(4-(trifluoromethyl)pyridin-3-yl)-1H-indazole]
IC50: < 10 µM

C[C@](O)(c1cncc(-n2ncc3c(Cl)ccc(F)c32)c1)C(F)(F)F [Example 84, (S)-2-(5-(4-chloro-7-fluoro-1H-indazol-1-yl)pyridin-3-yl)-1,1,1-trifluoropropan-2-ol]
IC50: < 10 µM

COc1cncc(-n2ncc3c(F)cccc32)c1 [Example 39, 4-fluoro-1-(5-methoxypyridin-3-yl)-1H-indazole]
IC50: < 10 µM

CN(C)c1cncc(-n2ncc3c(F)cccc32)n1 [Example 91, 6-(4-fluoro-1H-indazol-1-yl)-N,N-dimethylpyrazin-2-amine]
IC50: < 10 µM

C[C@@](O)(c1cncc(-n2ncc3c(C(F)(F)F)cccc32)c1)C(F)(F)F [Example 86, (R)-1,1,1-trifluoro-2-(5-(4-(trifluoromethyl)-1H-indazol-1-yl)pyridin-3-yl)propan-2-ol]
IC50: < 10 µM

Cc1cccc2c1cnn2-c1cccnc1 [Example 15, 4-methyl-1-(pyridin-3-yl)-1H-indazole]
IC50: < 10 µM

Cc1nn(-c2cncc(C(F)(F)F)c2)c2ccccc12 [Example 24, 3-methyl-1-(5-(trifluoromethyl)pyridin-3-yl)-1H-indazole]
IC50: < 10 µM

Fc1cccc2c1cnn2-c1cncc(N2CCCCC2)n1 [Example 93, 4-fluoro-1-(6-piperidin-1-ylpyrazin-2-yl)-1H-indazole]
IC50: < 10 µM

FC(F)(F)c1cncc(-n2ncc3c(C(F)(F)F)cccc32)c1 [Example 45, 4-(trifluoromethyl)-1-(5-(trifluoromethyl)pyridin-3-yl)-1H-indazole]
IC50: < 10 µM

Cc1ccc2c(cnn2-c2cncc(C(C)(C)O)c2)c1 [Example 66, 2-(5-(5-methyl-1H-indazol-1-yl)pyridin-3-yl)propan-2-ol]
IC50: < 10 µM

Fc1cc2cnn(-c3cccnc3)c2cc1F [Example 1, 5,6-difluoro-1-(pyridine-3yl)-1H-indazole]
IC50: < 10 µM

CC(C)(O)c1cncc(-n2ncc3c2CCCC3)c1 [Example 53, 2-(5-(3a,4,5,6,7,7a-hexahydro-1H-indazol-1-yl)pyridin-3-yl)propan-2-ol]
IC50: < 10 µM

Clc1cccc2c1cnn2-c1cncc(-c2ccccc2)c1 [Example 30, 4-chloro-1-(5-phenylpyridin-3-yl)-1H-indazole]
IC50: < 10 µM

Fc1cccc2c1cnn2-c1cncc(C(F)(F)F)c1 [Example 38, 4-fluoro-1-(5-(trifluoromethyl)pyridin-3-yl)-1H-indazole]
IC50: < 10 µM

CC(O)(c1cncc(-n2ncc3ccccc32)c1)C(F)(F)F (stereo not drawn) [Example 74, 2-(5-(1H-indazol-1-yl)pyridin-3-yl)-1,1,1-trifluoropropan-2-ol]
IC50: < 10 µM
